Percent effect of library compounds

Data taken from ChEMBL document CHEMBL3988442, “University of Dundee, Small-Polar-MMV Screening Library” (2021).

Results are given as percent effect. The controls that fix the scale are not given in the record; negative values are as filed. Compounds were drawn at random from those tested, without regard to their results. Two or more numbers in one place are separate tests of the same structure; such repeats can differ widely.

T. brucei: 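Whole-parasite assay of Trypanosoma brucei over 72 hours; the read-out is not stated. Tested at 30 µM. The record gives no direction; compounds that gave an IC50 in retests scored well above the rest, so higher reads as stronger inhibition. Values scatter widely below zero; nearly all retest evidence comes from the higher of the two concentrations used. Size under these conditions: about 64,000 compounds, about 940 of them at 50% or above in at least one test.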
Leishmania in macrophages: 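Cell assay of Leishmania donovani living inside macrophages; the read-out is not stated. Concentration: 30 µM. The record gives no direction; compounds that gave an IC50 in retests scored well above the rest, so higher reads as stronger inhibition. Of about 69,000 compounds tested this way, about 1,000 (1.5%) reached 50% or more in at least one test.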
Toxoplasma: 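Assay of Toxoplasma gondii numbers, read through their beta-galactosidase reporter with a colour substrate. Compounds at 10 µM. The record gives no direction; the compounds picked for IC50 retests had high values, so higher reads as fewer parasites. Size under these conditions: about 67,000 compounds, about 260 of them at 50% or above in at least one test.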

structure: Cc1cc2c(N3CCC(N(C)CCc4cnn(C)c4)CC3)ncnc2s1
T. brucei: -18.55
Leishmania in macrophages: 2.228
Toxoplasma: -6.287

structure: COc1ccccc1N1CCN(C(=O)c2ccnc(N(C)C)c2)CC1
T. brucei: 5.275
Leishmania in macrophages: 27.58
Toxoplasma: 9.155

structure: O=C(NCCN1CCOCC1)c1nc(-c2ccc3[nH]ccc3c2)no1
T. brucei: -24.15
Leishmania in macrophages: -7.999
Toxoplasma: -13.92

structure: CCOc1cccc(COC(=O)c2ccc(F)cn2)n1
T. brucei: -27.34
Leishmania in macrophages: 11.73
Toxoplasma: 1.484

structure: COCCN1CCCc2sc(C(=O)N3CCCN(C)CC3)nc21.O=C(O)C(F)(F)F
T. brucei: -57.45
Leishmania in macrophages: -0.7039 & -10.58
Toxoplasma: 8.315

structure: COc1ccc(CCCC(=O)N2CCCC(n3cccn3)C2)cc1 (centres unmarked)
T. brucei: -9.642
Leishmania in macrophages: -8.196
Toxoplasma: 2.664

structure: O=C(NCc1cnc2n1CCN(Cc1cccs1)C2)c1ccno1.O=C(O)C(F)(F)F
T. brucei: -45.43
Leishmania in macrophages: 1.269
Toxoplasma: 6.168

structure: Cn1nccc1NC(=O)Cn1ccc(-c2ccc3c(c2)OCO3)n1
T. brucei: -27.86
Leishmania in macrophages: 26.42
Toxoplasma: -18.18

structure: CC(=O)c1cccc(NC(=O)Cn2cc(-c3ccccc3)ncc2=O)c1
T. brucei: 3.166
Leishmania in macrophages: 18.77
Toxoplasma: 2.845

structure: NC(=O)CCN1CCC(C(=O)c2cc(F)ccc2F)CC1
T. brucei: 4.878
Leishmania in macrophages: 19.59
Toxoplasma: -1.257

structure: Cn1ncc(NC(=O)Cn2ccc(-c3cccc(F)c3)n2)n1
T. brucei: -19.13
Leishmania in macrophages: 21.29
Toxoplasma: 2.276

structure: COC(=O)CN1Cc2cc3c(cc2NCCC1=O)OCO3
T. brucei: -1.18
Leishmania in macrophages: 13.38
Toxoplasma: 6.555

structure: O=C(O)C(F)(F)F.[H][C@@]12CCN(CC3CCCO3)C[C@]1([H])CN(C(=O)Cc1cccs1)C2 (some centres unmarked)
T. brucei: -6.249
Leishmania in macrophages: 23.71
Toxoplasma: -2.885

structure: Cc1cc(O)cc(C2CCCN2C(=O)c2ccn(C)n2)n1 (centres unmarked)
T. brucei: -18.54
Leishmania in macrophages: -25.69
Toxoplasma: -20.63

structure: CCc1ncncc1C(=O)N1CCCC(n2nc(C)nc2C)C1 (centres unmarked)
Leishmania in macrophages: 23.78
Toxoplasma: 0.1221

structure: CC(c1nc(C2CC2)no1)N1CCN(CC(=O)N2CCOCC2)CC1 (centres unmarked)
T. brucei: -3.838
Leishmania in macrophages: -22.65
Toxoplasma: 3.194

structure: CCc1cnc(N2CCC3(CCN(CC)C3=O)CC2)nc1
T. brucei: -57.05
Leishmania in macrophages: 7.676
Toxoplasma: -1.025

structure: CC(C)c1nccn1CCCNC(=O)c1ccc(-c2ccncc2)nc1
T. brucei: -14.29
Leishmania in macrophages: 12.36
Toxoplasma: -6.755

structure: Cc1cccc2sc(NC(=O)CN3CCCC4(CC3)CNC(=O)O4)nc12 (centres unmarked)
T. brucei: -5.849
Leishmania in macrophages: 13.44
Toxoplasma: -0.6509

structure: COc1cnc(C2(O)CCN(C(=O)c3ccccn3)CC2)c(OC)n1
T. brucei: -9.61
Leishmania in macrophages: 5.445 & -1.234
Toxoplasma: 11.86

structure: O=C(O)C(F)(F)F.[H][C@@]12CCN(Cc3nccs3)[C@]1([H])CC[C@H](C(=O)N1CCCCO1)O2
T. brucei: 7.057
Leishmania in macrophages: 14.57
Toxoplasma: 15.61

structure: [H][C@]12CN(C(=O)C3CC3)CCN1C[C@H](c1ccccc1)[C@H]2CO
T. brucei: -24.44
Leishmania in macrophages: 13.15
Toxoplasma: -11

structure: COCCN1CCC(CN(CC2CCCO2)C(=O)CCC(F)(F)F)CC1 (centres unmarked)
T. brucei: -4.747
Leishmania in macrophages: -19.76
Toxoplasma: -0.6653

structure: Cn1nc(CN2CCCC2)c2c1CN(C(=O)c1ccc[nH]1)CC2
Leishmania in macrophages: -4.025
Toxoplasma: -9.013

structure: CCCN(CCC)C(=O)CN(C)Cc1cnc(C)s1
T. brucei: -16.22
Leishmania in macrophages: 6.699
Toxoplasma: -3.121

structure: CCN(CC)CCNC(=O)c1ccc(-n2ccc3ccccc32)s1
T. brucei: -12.39
Leishmania in macrophages: 95.71
Toxoplasma: 63.07

structure: N#Cc1cccc(S(=O)(=O)Nc2c(F)cccc2N2CCCC2)c1
T. brucei: -9.083
Leishmania in macrophages: 17.82

structure: CC(C)(C)N1CC(C(=O)NCc2cn3cccnc3n2)CC1=O (centres unmarked)
Leishmania in macrophages: 7.161
Toxoplasma: -16.57

structure: O=C(O)C(F)(F)F.O=C(O)C(F)(F)F.[H][C@@]12CCN(Cc3cccnc3)C(=O)[C@@]1([H])CN(Cc1ccc(C)s1)C2
T. brucei: -5.636
Leishmania in macrophages: 12.57
Toxoplasma: -10.47

structure: Cc1cnc(N2CCC3(CC(=O)N(Cc4csc(C)n4)C3)C2)nc1.O=C(O)C(F)(F)F (centres unmarked)
T. brucei: -14.36
Leishmania in macrophages: -11.16
Toxoplasma: -13.81

structure: CCc1ncc2c(n1)CN(CC(=O)Nc1cccnc1)CC2
T. brucei: -17.1
Leishmania in macrophages: -16.29
Toxoplasma: -3.487

structure: Cc1cc(C(=O)N2CCc3ncc(CN4CCOCC4)n3CC2)no1
Leishmania in macrophages: -95.98
Toxoplasma: -0.3765

structure: CCn1cc(CN2CCN(Cc3cc(C)cc(C)c3)C(=O)C2)cc1C#N
T. brucei: -12.75
Leishmania in macrophages: 1.569
Toxoplasma: -12.38

structure: CN1CCN2CCN(Cc3cc(=O)n4c5c(cccc35)CCC4)CC2C1 (centres unmarked)
T. brucei: -3.445
Leishmania in macrophages: 14.55
Toxoplasma: -3.419

structure: c1cnc(Nc2ccc(C3CCCCN3Cc3ccncc3)cn2)nc1 (centres unmarked)
T. brucei: 0.7817
Leishmania in macrophages: -6.226
Toxoplasma: -0.1233

structure: CN(C)C(=O)CNC(=O)c1cc(Br)c2c(c1)OCCO2
T. brucei: 36.18
Leishmania in macrophages: 17.42
Toxoplasma: 4.846

structure: CCOc1ccnc(N2CCN(C(=O)c3cc[nH]n3)CC2)n1
Leishmania in macrophages: 1.779
Toxoplasma: 3.824

structure: CCC(CN1CCCC1)n1cncc1-c1cnn(-c2ccccc2)c1.Cl (centres unmarked)
T. brucei: -6.567
Leishmania in macrophages: -2.532
Toxoplasma: 8.94

structure: CC(C)=CCS(=O)(=O)Cc1ccn(-c2cccc(F)c2)n1
T. brucei: -10.14
Leishmania in macrophages: 26.88
Toxoplasma: 5.198

structure: CSCC(=O)N1CCc2[nH]nc(-c3ccc4c(c3)OCO4)c2C1
T. brucei: -60.75
Leishmania in macrophages: 6.498
Toxoplasma: 1.813

Some entries from above, unchanged:

With Cc1cc(O)cc(C2CCCN2C(=O)c2ccn(C)n2)n1 (centres unmarked) the screen gave T. brucei: -18.54%; Leishmania in macrophages: -25.69%; Toxoplasma: -20.63%.
With CSCC(=O)N1CCc2[nH]nc(-c3ccc4c(c3)OCO4)c2C1 the screen gave T. brucei: -60.75%; Leishmania in macrophages: 6.498%; Toxoplasma: 1.813%.
With Cn1nccc1NC(=O)Cn1ccc(-c2ccc3c(c2)OCO3)n1 the screen gave T. brucei: -27.86%; Leishmania in macrophages: 26.42%; Toxoplasma: -18.18%.
With CN1CCN2CCN(Cc3cc(=O)n4c5c(cccc35)CCC4)CC2C1 (centres unmarked) the screen gave T. brucei: -3.445%; Leishmania in macrophages: 14.55%; Toxoplasma: -3.419%.
With CC(C)c1nccn1CCCNC(=O)c1ccc(-c2ccncc2)nc1 the screen gave T. brucei: -14.29%; Leishmania in macrophages: 12.36%; Toxoplasma: -6.755%.